Measured values: patent US20240009285A1
These are yes or no findings as the source states them, for the method shown. Binding can be weak; no strength is given.

Molecular target: lamprey DY-synuclein~GFP (lamprey)
Test: nanobody library screen against DY-synuclein

binding: binds
B1: DB1 (VHH)
VHH: EVQLQASGGGFVQPGGSLRLSCAASGFTSWEDTMGWFRQAPGKEREFVSAISFDANDLSDTSVYYADSVKGRFTISRDNSKNTVYLQMNSLRAEDTATYYCAVASFEILLYGESLHIYWGQGTQVTVSS
